Mtb growth Cornell: 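Whole-cell assay for inhibitors of Mycobacterium tuberculosis growth, labelled Cornell in the record; the read-out is not stated. The concentration is filed as 10 mM, unlikely as a test dose, so the dose is not known. Higher means stronger inhibition (inferred from two other growth screens of the library). Of about 53,000 compounds tested this way, about 900 (1.7%) reached 50% or more in at least one test.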
Mtb heat-shock: 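Assay on Mycobacterium tuberculosis, filed only as a heat shock assay from Cornell; the read-out is not stated. The concentration is filed as 10 mM, unlikely as a test dose, so the dose is not known. Higher reads as stronger inhibition (inferred: compounds with an IC50 in retests scored well above the rest). Of about 69,000 compounds tested this way, about 930 (1.4%) reached 50% or more in at least one test.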

Results are given as percent effect.
The controls that fix the scale are not given in the record; negative values are as filed.
Compounds were drawn at random from those tested, without regard to their results.

With O=C(NCCC(=O)N1CCCc2ccccc21)c1cc(F)cc(F)c1 the screen gave Mtb heat-shock: -22.09%. With [H][C@@]12COC[C@]1([H])[C@@H](OCc1ccccn1)CN2C(=O)c1ccc[nH]1 the screen gave Mtb heat-shock: 9.075%. For CN(CCCO)C(=O)c1ccc2c(c1)nc(N1CC[C@H](O)C1)n2C the result was Mtb heat-shock: 0.2258%. For CCCn1cc(C(=O)NC(CC(=O)O)c2ccccc2F)c(C)n1 (stereo not drawn) the result was Mtb growth Cornell: -28.4%; Mtb heat-shock: -7.41%. COCC(=O)N1CCCC(c2cccc(-n3ccnc3)n2)C1 (stereo not drawn) read Mtb heat-shock: -26.65%. With Cc1ccccc1-c1noc(CN2CCOC(Cn3cccn3)C2)n1 (stereo not drawn) the screen gave Mtb heat-shock: -11.01%.

Result for CCOCC1CN(C(=O)Cc2cccs2)Cc2ccnn2C1 (stereo not drawn) was Mtb growth Cornell: 20.81%; Mtb heat-shock: -2.905%. Cc1csc(N2CCCN(C(=O)c3ccsc3)CC2)n1 gave Mtb growth Cornell: 19.55%; Mtb heat-shock: 3.012%. For Cc1ccc(-c2nnn(CCN3C(=O)CCC3=O)n2)cc1 the result was Mtb growth Cornell: -8.264%; Mtb heat-shock: -18.22%. Cc1ccc(CNC(C)c2cc(F)ccc2N2CCN(C)CC2)o1 (stereo not drawn) read Mtb growth Cornell: 12.5%; Mtb heat-shock: -35.24%. CCN(C(=O)CN1CCC(c2ccccc2)C1)C1CC1 (stereo not drawn) gave Mtb heat-shock: 13.18%. COc1ccccc1C(O)CNC(=O)Nc1ncccc1C (stereo not drawn) gave Mtb growth Cornell: -13.5%; Mtb heat-shock: 13.78%.

Result for COc1ccc(N(C)C(=O)c2ccc(Cl)c(S(C)(=O)=O)c2)cn1 was Mtb growth Cornell: -6.829%; Mtb heat-shock: 19.09%. With CC(NC(=O)N1CCc2ccccc21)c1nncn1C (stereo not drawn) the screen gave Mtb growth Cornell: -39.29%; Mtb heat-shock: 3.039%. With O=C(NC1CCc2c(ccc(=O)n2CC2CC2)C1)c1ccsc1 (stereo not drawn) the screen gave Mtb growth Cornell: -5.66%; Mtb heat-shock: 2.618%. CCN1CCC(CNC(=O)c2cc(Cl)c[nH]2)CC1 read Mtb growth Cornell: 10.31%; Mtb heat-shock: 20.33%. With CS(=O)(=O)Cc1ccc(Cl)cc1NCc1cccc(F)c1F the screen gave Mtb growth Cornell: 6.915%; Mtb heat-shock: 57.79%. O=C(CN1CSCC1=O)NCC1CCN(c2ccccc2)C1 (stereo not drawn) gave Mtb growth Cornell: 12.53%; Mtb heat-shock: 9.712%.

CC(=O)N1CCc2nnc(C3CCCCN3CC3CC3)n2CC1 (stereo not drawn) gave Mtb growth Cornell: -9.106%; Mtb heat-shock: 7.692%. COc1ccc(C2SCC(=O)Nc3ccsc32)cc1OC (stereo not drawn) gave Mtb growth Cornell: -32.24%; Mtb heat-shock: 10.8%. For Cc1cc(CNC(=O)c2cc(NC(=O)C(C)C)ccc2Cl)no1 the result was Mtb growth Cornell: -16.56%; Mtb heat-shock: -19.97%. CS(=O)(=O)N1CCC(C(=O)NCCNc2ncccn2)CC1 read Mtb growth Cornell: 6.447%; Mtb heat-shock: -8.037%. For CN(C)CC(=O)N1CCc2ncnc(-c3cncnc3)c2CC1.O=C(O)C(F)(F)F the result was Mtb growth Cornell: 10.74%; Mtb heat-shock: -8.134%. For CC[C@H](N)Cn1nc(-c2cccs2)oc1=O.Cl the result was Mtb growth Cornell: 29.3%; Mtb heat-shock: -3.628%.

With COCC1CN(c2ccncn2)Cc2cnn(CC3CCCC3)c21.O=C(O)C(F)(F)F.O=C(O)C(F)(F)F (stereo not drawn) the screen gave Mtb growth Cornell: -1.937%; Mtb heat-shock: 3.159%. With Nc1ccc(C(=O)N2CCCC(C(=O)CCc3ccccc3)C2)cn1 (stereo not drawn) the screen gave Mtb growth Cornell: 18.01%; Mtb heat-shock: -11.29%. O=C(NCCCn1nc2ccccn2c1=O)Nc1ccc(F)cc1F read Mtb heat-shock: -9.486%. For O=C(O)C(F)(F)F.[H][C@@]12CN(CC)C[C@]1([H])[C@@H](OC)CCN2S(=O)(=O)c1ccccc1F the result was Mtb heat-shock: -209.5%. [H][C@@]12CN(Cc3cccc(C)n3)C[C@]1([H])N(Cc1ccccc1OC)C(=O)O2 gave Mtb growth Cornell: -12.52%; Mtb heat-shock: -27.59%. Cc1cc(CNCc2c(C)n(CC(C)C)c3ccccc23)[nH]n1 gave Mtb growth Cornell: 57.75%; Mtb heat-shock: 26.93%.

Cc1cnn(C2CN(Cc3nnc(Cc4ccccc4)o3)C2)c1 gave Mtb growth Cornell: 75.37%; Mtb heat-shock: 21.86%. COC(=O)c1ccc(NS(=O)(=O)c2cnc(NC(C)=O)s2)cc1 read Mtb heat-shock: 10.46%.

2 of the entries, repeated:

* COCC1CN(c2ccncn2)Cc2cnn(CC3CCCC3)c21.O=C(O)C(F)(F)F.O=C(O)C(F)(F)F (stereo not drawn) : Mtb growth Cornell: -1.937%; Mtb heat-shock: 3.159%
* Cc1cnn(C2CN(Cc3nnc(Cc4ccccc4)o3)C2)c1 : Mtb growth Cornell: 75.37%; Mtb heat-shock: 21.86%

Source: ChEMBL document CHEMBL3988442, “University of Dundee, Small-Polar-MMV Screening Library” (2021).